# Experimental data from PubChem BioAssay AID330 (DTP/NCI, 2004).
# The list shows only some results of the screen, not a fair sample: it is rich in T/C values a quarter to a half above the control, in often repeated tests (any T/C) and in doses without a T/C. Other doses and runs of a compound stand elsewhere. T/C is the treated group as % of the vehicle group. Some entries give survivors of the animals treated and no T/C: the source holds a T/C of zero for them, seemingly a mark for toxic or unscored doses. Some doses without a T/C left all or most animals alive at the check, yet need not have been tolerated: survival well below the control is almost never listed, so the zero probably covers shortened survival too. Counts of survivors are from the toxicity check (mostly the fifth day) where no day follows; animals may have died later. Schedules are NCI's codes, taken here to give the interval after Q, in days (D) or hours (H), and the number of doses after X. Some entries were tested several times; their values stand side by side, smallest first. For survival time, this PubChem deposit counts one and a half times the control or more as active, and values a quarter to a half above the control carry no call in these data; other NCI protocols may use other cut-offs. Some T/C values carry the count of animals alive at the toxicity check (mostly the fifth day); where none is given, no animal had died by that day.
# Test system: P388 leukemia ip, CD2F1 mice, survival T/C
# Test: NCI In Vivo Anticancer Drug Screen. Data for tumor model P388 Leukemia (intraperitoneal) in CD2F1 (CDF1) mice
# Settings: T/C endpoint: median survival time, higher T/C = longer survival
# [1] = dose: 100.0 mg/kg/injection, schedule: Q01DX005 (ip), vehicle: Klucel (hydroxypropylcellulose) (HPC)
# [2] = dose: 200.0 mg/kg/injection, schedule: Q01DX005 (ip), vehicle: Klucel (hydroxypropylcellulose) (HPC)
# [3] = dose: 50.0 mg/kg/injection, schedule: Q01DX009 (ip), vehicle: saline with Tween-80
# [4] = dose: 100.0 mg/kg/injection, schedule: Q01DX009 (ip), vehicle: saline with Tween-80
# [5] = dose: 200.0 mg/kg/injection, schedule: Q01DX009 (ip), vehicle: saline with Tween-80
smiles,measurement,setting,value
Cc1ccc(S(=O)(=O)N(C)C2c3ccccc3Oc3ccccc32)cc1,survivor count,"dose: 25.0 mg/kg/injection, schedule: Q01DX009 (ip), vehicle: Klucel (hydroxypropylcellulose) (HPC)",6 of 6
Nc1cc(C(F)(F)F)ccc1S,survivor count,"dose: 12.0 mg/kg/injection, schedule: Q01DX009 (ip), vehicle: DMSO",6 of 6
same,survivor count,"dose: 25.0 mg/kg/injection, schedule: Q01DX009 (ip), vehicle: DMSO",3 of 6
same,survivor count,"dose: 50.0 mg/kg/injection, schedule: Q01DX009 (ip), vehicle: DMSO",2 of 6 and 4 of 5
same,survivor count,"dose: 100.0 mg/kg/injection, schedule: Q01DX009 (ip), vehicle: DMSO",2 of 6
same,survivor count,"dose: 200.0 mg/kg/injection, schedule: Q01DX009 (ip), vehicle: DMSO",0 of 6
O=C1NC(=O)C2NC(O)=C(O)NC2N1 (configuration not stated),survivor count,"dose: 50.0 mg/kg/injection, schedule: Q01DX001 (ip), vehicle: saline with Tween-80",2 of 6
same,survivor count,"dose: 100.0 mg/kg/injection, schedule: Q01DX001 (ip), vehicle: saline with Tween-80",1 of 6
same,survivor count,"dose: 200.0 mg/kg/injection, schedule: Q01DX001 (ip), vehicle: saline with Tween-80",2 of 6
same,survivor count,"dose: 400.0 mg/kg/injection, schedule: Q01DX001 (ip), vehicle: saline with Tween-80",0 of 6
COc1cc(NCc2ccc3nc(N)nc(N)c3c2C)cc(OC)c1OC (tested in a mixture with another compound),T/C,"dose: 2.5 mg/kg/injection, schedule: Q03HX024 (ip), vehicle: water",144 % of control
same,T/C,"dose: 6.25 mg/kg/injection, schedule: Q03HX008 (sc), vehicle: water",127 % of control
same,T/C,"dose: 6.9 mg/kg/injection, schedule: Q01DX009 (ip), vehicle: water",143 % of control
same,T/C,"dose: 7.8 mg/kg/injection, schedule: Q03HX008 (ip), vehicle: water",137 % of control
same,T/C,"dose: 12.5 mg/kg/injection, schedule: Q01DX005 (ip), vehicle: water, evaluated on day 30",137 % of control [5 of 6 alive]
same,T/C,"dose: 12.5 mg/kg/injection, schedule: Q01DX005 (ip), vehicle: water, evaluated on day 60",140 % of control
same,T/C,"dose: 12.5 mg/kg/injection, schedule: Q01DX005 (iv), vehicle: water",131 % of control
same,T/C,"dose: 12.5 mg/kg/injection, schedule: Q03HX008 (sc), vehicle: water",127 % of control
same,T/C,"dose: 15.6 mg/kg/injection, schedule: Q03HX008 (ip), vehicle: water",144 % of control
same,T/C,"dose: 20.8 mg/kg/injection, schedule: Q04DX003 (ip), vehicle: water",131 % of control
same,T/C,"dose: 25.0 mg/kg/injection, schedule: Q01DX005 (iv), vehicle: water",143 % of control
same,T/C,"dose: 25.0 mg/kg/injection, schedule: Q03HX008 (sc), vehicle: water",134 % of control
same,T/C,"dose: 31.2 mg/kg/injection, schedule: Q03HX008 (ip), vehicle: water",133 % of control [8 of 10 alive]
same,T/C,"dose: 41.6 mg/kg/injection, schedule: Q04DX003 (ip), vehicle: water",128 % of control
same,T/C,"dose: 50.0 mg/kg/injection, schedule: Q01DX005 (sc), vehicle: water",131 % of control
same,T/C,"dose: 50.0 mg/kg/injection, schedule: Q03HX008 (sc), vehicle: water",131 and 147 % of control
same,survivor count,"dose: 62.0 mg/kg/injection, schedule: Q03HX008 (ip), vehicle: water",5 of 10
same,survivor count,"dose: 70.0 mg/kg/injection, schedule: Q01DX001 (iv), vehicle: water",2 of 10
same,T/C,"dose: 83.3 mg/kg/injection, schedule: Q04DX003 (ip), vehicle: water",138 % of control
same,survivor count,"dose: 85.0 mg/kg/injection, schedule: Q01DX001 (iv), vehicle: water",0 of 10
same,survivor count,"dose: 100.0 mg/kg/injection, schedule: Q01DX001 (iv), vehicle: water",0 of 10
same,survivor count,"dose: 100.0 mg/kg/injection, schedule: Q01DX005 (iv), vehicle: water",0 of 10
same,survivor count,"dose: 111.1 mg/kg/injection, schedule: Q01DX009 (ip), vehicle: water",5 of 10
same,survivor count,"dose: 120.0 mg/kg/injection, schedule: Q01DX001 (iv), vehicle: water",1 of 10
same,survivor count,"dose: 125.0 mg/kg/injection, schedule: Q01DX001 (iv), vehicle: water",0 of 10
same,survivor count,"dose: 125.0 mg/kg/injection, schedule: Q03HX008 (ip), vehicle: water",0 of 10
same,survivor count,"dose: 166.6 mg/kg/injection, schedule: Q04DX003 (ip), vehicle: water",0 of 10
same,survivor count,"dose: 200.0 mg/kg/injection, schedule: Q01DX005 (ip), vehicle: water",0 of 10 and 3 of 6
same,survivor count,"dose: 200.0 mg/kg/injection, schedule: Q01DX005 (iv), vehicle: water",0 of 10
same,survivor count,"dose: 222.2 mg/kg/injection, schedule: Q01DX009 (oral), vehicle: water",9 of 10
same,survivor count,"dose: 250.0 mg/kg/injection, schedule: Q01DX001 (ip), vehicle: water",0 of 10
same,survivor count,"dose: 250.0 mg/kg/injection, schedule: Q01DX001 (iv), vehicle: water",0 of 10
same,survivor count,"dose: 333.3 mg/kg/injection, schedule: Q04DX003 (ip), vehicle: water",0 of 10
same,survivor count,"dose: 400.0 mg/kg/injection, schedule: Q01DX005 (ip), vehicle: water",0 of 6
same,survivor count,"dose: 444.4 mg/kg/injection, schedule: Q01DX009 (oral), vehicle: water",9 of 10
same,survivor count,"dose: 500.0 mg/kg/injection, schedule: Q01DX001 (ip), vehicle: water",0 of 10
same,survivor count,"dose: 500.0 mg/kg/injection, schedule: Q01DX001 (iv), vehicle: water",0 of 10
same,survivor count,"dose: 1000.0 mg/kg/injection, schedule: Q01DX001 (ip), vehicle: water",0 of 10
same,survivor count,"dose: 1000.0 mg/kg/injection, schedule: Q01DX001 (iv), vehicle: water",0 of 10
NC(=O)NC(=O)/C=C/C(=O)OCCCl,survivor count,[1],4 of 6
same,survivor count,[2],0 of 6
Nc1nc(N)c2cc(CNc3ccc(Cl)c(Cl)c3)ccc2n1,survivor count,[3],4 of 6
same,survivor count,[4],0 of 6
same,survivor count,[5],0 of 6
Cc1cn(O)cc(C)c1=N,survivor count,[3],6 of 6
same,survivor count,[4],4 of 6
same,survivor count,[5],0 of 6
Cc1ccc(C2=CSC3=NCCN23)cc1Cl,survivor count,"dose: 50.0 mg/kg/injection, schedule: Q01DX005 (ip), vehicle: Klucel (hydroxypropylcellulose) (HPC)",3 of 6
same,survivor count,[1],0 of 5
same,survivor count,[2],0 of 5
CC(C)NC(=O)OCc1c(COC(=O)NC(C)C)c(S(=O)c2ccccc2)n2c1CCC2 (configuration not stated),T/C,"dose: 200.0 mg/kg/injection, schedule: Q01DX005 (ip), vehicle: distilled water + Tween-80",125 % of control
[Cu+2].[O-]/C(=N\N=C/c1ccco1)c1ccccc1O.[O-]/C(=N\N=C/c1ccco1)c1ccccc1O.[OH3+].[OH3+],survivor count,"dose: 100.0 mg/kg/injection, schedule: Q04DX002 (ip), vehicle: saline with Tween-80",6 of 6
same,survivor count,"dose: 200.0 mg/kg/injection, schedule: Q04DX002 (ip), vehicle: saline with Tween-80",5 of 6
Clc1ccc(NCNC2Nc3ccccc3N2)cc1Cl,survivor count,"dose: 240.0 mg/kg/injection, schedule: Q01DX005 (ip), vehicle: saline with Tween-80",6 of 6
COC(=O)n1sc(SC)nc1=N,survivor count,[1],0 of 6
same,survivor count,[2],0 of 6
COc1ccc(C(c2cc3c(cc2O)OCO3)N2CCCC2)c(OC)c1 (configuration not stated),survivor count,"dose: 240.0 mg/kg/injection, schedule: Q01DX005 (ip), vehicle: Klucel (hydroxypropylcellulose) (HPC)",5 of 6
